Some of the results follow.
Compound: C1=CC2=NC=CN=C2C=C1/C=C/3\C(=O)NC(=O)S3
Assay: log2 fold change, soluble protein after heating vs DMSO (PISA); higher = thermal stabilisation; K562 lysate, 10 uM; active = over 0.2 and 3.5 SD of the protein, either way, in both replicates (recomputed)
Procedure, shortened: (§1)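 Pellets of K562 cells were dounce-homogenised in PBS pH 7.4 with 1 mM MgCl2, and the crude extract was held at 1 mg/mL protein for a 30 min treatment with 10 μM compound. Aliquots were heated for 3 min over 48°C-58°C and pooled before NP-40 was added to 0.5% at 4°C. The supernatant from 21,000xg for 90 min was quantified by TMTpro 16plex LC-MS/MS with channel sums equalised. Values are reported from duplicates as log-two fold change in thermal stability relative to solvent controls.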

Amino acid sequences for entries named in this document (tags omitted). A change or cut given only in a name is not applied to a line headed by its entry.
UniProt Q629K1: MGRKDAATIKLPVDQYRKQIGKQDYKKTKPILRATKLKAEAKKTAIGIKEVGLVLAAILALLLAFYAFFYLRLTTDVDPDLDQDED
UniProt Q9BU70: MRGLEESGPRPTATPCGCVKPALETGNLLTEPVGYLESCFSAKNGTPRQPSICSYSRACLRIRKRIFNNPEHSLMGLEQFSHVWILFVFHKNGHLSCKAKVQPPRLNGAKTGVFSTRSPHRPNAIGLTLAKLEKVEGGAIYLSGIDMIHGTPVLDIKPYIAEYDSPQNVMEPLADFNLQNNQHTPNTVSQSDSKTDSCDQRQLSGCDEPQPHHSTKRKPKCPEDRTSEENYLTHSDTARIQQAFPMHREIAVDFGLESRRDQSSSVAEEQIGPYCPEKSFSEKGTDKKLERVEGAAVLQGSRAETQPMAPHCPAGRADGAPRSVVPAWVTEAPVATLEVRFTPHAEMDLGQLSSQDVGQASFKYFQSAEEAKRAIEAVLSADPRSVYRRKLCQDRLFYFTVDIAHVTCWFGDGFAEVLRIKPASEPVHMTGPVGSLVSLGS
UniProt Q8NBP0: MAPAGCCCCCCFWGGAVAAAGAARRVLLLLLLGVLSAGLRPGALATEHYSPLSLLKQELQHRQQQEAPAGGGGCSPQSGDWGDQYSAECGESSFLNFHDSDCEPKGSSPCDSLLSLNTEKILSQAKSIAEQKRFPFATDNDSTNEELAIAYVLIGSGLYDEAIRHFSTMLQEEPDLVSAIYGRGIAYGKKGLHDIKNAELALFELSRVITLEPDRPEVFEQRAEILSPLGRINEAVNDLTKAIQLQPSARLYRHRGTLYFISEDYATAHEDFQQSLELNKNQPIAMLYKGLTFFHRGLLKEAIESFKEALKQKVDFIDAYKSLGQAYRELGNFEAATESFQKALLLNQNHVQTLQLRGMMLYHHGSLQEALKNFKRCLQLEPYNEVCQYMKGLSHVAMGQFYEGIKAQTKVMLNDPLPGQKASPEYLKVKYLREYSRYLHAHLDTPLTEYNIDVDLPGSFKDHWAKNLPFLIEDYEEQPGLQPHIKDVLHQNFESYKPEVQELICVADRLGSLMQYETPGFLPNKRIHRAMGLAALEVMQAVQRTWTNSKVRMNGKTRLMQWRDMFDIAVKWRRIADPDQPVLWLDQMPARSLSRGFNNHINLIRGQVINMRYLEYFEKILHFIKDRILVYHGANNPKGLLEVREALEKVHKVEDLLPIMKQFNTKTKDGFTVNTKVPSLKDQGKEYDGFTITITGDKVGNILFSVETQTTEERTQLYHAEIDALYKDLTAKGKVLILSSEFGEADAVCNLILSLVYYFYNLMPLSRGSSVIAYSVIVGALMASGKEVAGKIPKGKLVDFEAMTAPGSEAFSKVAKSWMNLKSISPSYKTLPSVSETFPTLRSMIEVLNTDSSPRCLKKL
UniProt Q9H0U9: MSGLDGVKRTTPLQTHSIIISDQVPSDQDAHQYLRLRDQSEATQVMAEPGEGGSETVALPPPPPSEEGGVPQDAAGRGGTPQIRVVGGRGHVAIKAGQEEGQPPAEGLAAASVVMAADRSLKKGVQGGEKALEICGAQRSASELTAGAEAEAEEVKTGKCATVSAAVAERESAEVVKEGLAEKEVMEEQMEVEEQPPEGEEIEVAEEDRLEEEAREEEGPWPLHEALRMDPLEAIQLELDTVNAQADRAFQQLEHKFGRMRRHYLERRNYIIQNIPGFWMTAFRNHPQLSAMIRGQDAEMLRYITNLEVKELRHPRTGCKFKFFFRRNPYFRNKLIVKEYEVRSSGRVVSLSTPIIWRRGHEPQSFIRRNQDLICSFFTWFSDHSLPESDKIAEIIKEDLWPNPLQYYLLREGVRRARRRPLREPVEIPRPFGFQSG
UniProt Q8TD43: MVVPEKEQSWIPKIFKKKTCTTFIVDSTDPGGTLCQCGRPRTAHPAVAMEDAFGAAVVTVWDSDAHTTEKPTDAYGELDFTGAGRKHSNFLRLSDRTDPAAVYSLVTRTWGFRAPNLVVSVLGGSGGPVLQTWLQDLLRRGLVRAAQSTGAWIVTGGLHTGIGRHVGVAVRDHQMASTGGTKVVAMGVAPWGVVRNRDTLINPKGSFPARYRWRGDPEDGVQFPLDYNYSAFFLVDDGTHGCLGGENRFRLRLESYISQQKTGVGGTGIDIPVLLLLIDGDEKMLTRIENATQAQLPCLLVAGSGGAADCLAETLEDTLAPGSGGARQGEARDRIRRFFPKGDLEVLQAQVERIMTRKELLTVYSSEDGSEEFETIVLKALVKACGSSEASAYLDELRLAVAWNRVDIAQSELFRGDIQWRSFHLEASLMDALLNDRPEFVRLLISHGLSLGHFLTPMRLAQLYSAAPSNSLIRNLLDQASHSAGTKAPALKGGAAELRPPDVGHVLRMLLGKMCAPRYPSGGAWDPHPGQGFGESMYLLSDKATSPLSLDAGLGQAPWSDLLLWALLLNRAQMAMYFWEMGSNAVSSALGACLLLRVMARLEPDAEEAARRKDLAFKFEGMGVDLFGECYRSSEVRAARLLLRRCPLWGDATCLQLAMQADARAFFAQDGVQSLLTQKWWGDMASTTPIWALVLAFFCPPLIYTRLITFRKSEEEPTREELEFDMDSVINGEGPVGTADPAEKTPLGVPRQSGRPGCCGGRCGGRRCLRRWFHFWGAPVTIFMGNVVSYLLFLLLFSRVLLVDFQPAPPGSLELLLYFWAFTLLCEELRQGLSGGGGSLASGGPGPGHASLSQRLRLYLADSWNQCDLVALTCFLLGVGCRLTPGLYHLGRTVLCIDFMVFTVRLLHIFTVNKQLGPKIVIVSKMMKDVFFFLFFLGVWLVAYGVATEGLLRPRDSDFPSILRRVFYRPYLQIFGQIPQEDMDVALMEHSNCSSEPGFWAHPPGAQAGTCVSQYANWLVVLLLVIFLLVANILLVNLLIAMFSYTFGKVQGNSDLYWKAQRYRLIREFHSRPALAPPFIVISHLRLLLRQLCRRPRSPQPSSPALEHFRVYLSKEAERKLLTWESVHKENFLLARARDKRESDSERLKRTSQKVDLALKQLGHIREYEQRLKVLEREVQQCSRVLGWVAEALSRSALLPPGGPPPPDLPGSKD
UniProt Q96GJ1: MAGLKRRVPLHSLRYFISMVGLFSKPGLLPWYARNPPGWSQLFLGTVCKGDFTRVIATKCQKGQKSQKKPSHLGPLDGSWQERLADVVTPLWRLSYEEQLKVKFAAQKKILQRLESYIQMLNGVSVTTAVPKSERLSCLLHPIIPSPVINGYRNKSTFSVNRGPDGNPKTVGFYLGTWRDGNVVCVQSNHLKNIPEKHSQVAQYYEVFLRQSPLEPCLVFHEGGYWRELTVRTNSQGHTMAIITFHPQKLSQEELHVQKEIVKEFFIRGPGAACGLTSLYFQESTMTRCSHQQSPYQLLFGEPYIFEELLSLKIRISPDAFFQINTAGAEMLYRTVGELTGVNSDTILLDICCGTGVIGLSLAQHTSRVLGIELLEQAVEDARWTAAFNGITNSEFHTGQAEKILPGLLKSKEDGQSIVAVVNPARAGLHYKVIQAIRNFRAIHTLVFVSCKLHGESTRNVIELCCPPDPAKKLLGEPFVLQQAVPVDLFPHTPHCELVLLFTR
UniProt O43715: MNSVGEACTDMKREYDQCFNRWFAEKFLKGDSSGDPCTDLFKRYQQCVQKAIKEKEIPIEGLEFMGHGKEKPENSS
UniProt Q8N831: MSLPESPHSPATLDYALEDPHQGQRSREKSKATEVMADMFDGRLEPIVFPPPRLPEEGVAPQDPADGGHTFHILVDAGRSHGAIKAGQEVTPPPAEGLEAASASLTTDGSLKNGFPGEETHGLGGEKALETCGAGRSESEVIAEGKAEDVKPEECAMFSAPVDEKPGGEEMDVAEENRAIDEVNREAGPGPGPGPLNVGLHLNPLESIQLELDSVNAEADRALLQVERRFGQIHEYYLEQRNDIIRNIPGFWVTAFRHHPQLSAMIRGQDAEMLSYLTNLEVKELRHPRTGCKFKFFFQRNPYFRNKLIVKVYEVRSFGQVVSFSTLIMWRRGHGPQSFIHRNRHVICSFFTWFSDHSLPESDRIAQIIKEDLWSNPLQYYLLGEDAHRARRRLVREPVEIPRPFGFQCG
UniProt Q6PF06: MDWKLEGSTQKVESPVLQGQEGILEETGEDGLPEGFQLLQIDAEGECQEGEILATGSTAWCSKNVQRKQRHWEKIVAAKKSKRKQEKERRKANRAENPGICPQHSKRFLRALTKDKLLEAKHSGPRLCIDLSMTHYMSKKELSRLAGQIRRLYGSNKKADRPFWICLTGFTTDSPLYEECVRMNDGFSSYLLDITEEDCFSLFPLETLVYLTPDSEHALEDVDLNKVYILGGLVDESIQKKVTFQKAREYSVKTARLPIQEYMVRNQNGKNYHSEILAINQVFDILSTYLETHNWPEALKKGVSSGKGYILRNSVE
UniProt Q99576: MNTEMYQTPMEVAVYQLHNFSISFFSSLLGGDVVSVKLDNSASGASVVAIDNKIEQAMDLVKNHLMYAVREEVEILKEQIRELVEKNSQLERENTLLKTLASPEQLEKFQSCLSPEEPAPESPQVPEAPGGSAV
UniProt Q15714: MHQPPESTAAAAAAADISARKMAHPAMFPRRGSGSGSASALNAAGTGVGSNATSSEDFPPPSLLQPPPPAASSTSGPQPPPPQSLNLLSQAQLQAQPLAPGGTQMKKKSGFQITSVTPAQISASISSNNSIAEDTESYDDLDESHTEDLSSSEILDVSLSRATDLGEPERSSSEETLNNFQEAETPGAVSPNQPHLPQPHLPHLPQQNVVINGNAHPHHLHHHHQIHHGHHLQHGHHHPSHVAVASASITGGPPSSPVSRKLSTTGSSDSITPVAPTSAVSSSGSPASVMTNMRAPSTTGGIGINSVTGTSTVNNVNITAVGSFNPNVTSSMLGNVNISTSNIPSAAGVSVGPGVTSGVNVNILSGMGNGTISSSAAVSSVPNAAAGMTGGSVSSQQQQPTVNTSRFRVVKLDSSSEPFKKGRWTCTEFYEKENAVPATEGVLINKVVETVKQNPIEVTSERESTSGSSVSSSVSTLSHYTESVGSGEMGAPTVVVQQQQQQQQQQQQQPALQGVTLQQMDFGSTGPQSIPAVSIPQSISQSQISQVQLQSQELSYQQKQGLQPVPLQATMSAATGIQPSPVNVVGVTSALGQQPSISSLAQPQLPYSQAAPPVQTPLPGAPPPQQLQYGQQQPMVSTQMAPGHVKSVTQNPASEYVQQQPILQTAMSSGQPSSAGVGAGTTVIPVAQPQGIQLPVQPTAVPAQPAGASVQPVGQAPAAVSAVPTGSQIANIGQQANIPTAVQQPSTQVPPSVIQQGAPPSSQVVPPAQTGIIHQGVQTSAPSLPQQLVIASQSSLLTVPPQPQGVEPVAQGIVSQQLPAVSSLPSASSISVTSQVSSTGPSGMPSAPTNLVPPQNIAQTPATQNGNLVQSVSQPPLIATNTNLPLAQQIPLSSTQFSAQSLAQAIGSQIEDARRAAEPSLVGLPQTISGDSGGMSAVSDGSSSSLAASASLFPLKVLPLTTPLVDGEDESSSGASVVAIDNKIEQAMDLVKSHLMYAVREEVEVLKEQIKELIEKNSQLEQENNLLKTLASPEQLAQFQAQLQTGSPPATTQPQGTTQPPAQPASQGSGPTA
UniProt Q9UJT2: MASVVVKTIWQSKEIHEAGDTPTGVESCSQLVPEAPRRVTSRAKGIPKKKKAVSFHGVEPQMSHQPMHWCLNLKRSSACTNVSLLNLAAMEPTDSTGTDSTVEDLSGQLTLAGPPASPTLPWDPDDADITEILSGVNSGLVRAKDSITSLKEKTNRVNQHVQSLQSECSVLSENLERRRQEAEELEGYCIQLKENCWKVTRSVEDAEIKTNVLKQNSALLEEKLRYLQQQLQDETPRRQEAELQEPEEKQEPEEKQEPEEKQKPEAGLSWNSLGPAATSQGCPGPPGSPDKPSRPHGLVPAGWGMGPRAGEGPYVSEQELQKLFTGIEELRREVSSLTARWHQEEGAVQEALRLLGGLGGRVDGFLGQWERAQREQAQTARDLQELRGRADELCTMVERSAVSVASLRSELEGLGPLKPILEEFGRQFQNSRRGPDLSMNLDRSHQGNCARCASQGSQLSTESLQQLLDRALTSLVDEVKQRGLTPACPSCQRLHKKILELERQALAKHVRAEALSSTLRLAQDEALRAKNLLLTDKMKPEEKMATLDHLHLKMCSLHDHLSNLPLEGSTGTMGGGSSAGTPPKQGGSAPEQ
UniProt O14717: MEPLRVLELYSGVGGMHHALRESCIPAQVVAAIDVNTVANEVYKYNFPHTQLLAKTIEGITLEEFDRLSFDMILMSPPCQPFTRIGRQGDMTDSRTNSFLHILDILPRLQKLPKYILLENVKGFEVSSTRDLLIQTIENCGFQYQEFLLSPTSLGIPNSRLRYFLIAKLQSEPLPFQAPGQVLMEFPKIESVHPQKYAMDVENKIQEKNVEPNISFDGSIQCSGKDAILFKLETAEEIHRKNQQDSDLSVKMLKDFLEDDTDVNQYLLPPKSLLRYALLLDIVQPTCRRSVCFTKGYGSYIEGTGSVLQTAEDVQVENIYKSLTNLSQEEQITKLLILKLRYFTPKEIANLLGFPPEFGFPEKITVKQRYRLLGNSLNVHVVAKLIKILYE

log2 fold change, inactive:
TRIQK (UniProt Q629K1) -0.002
TRMO (UniProt Q9BU70) -0.01
TTC13 (UniProt Q8NBP0) -0.036
TSPYL1 (UniProt Q9H0U9) -0.041
TRPM4 (UniProt Q8TD43) -0.094
TRMT2B (UniProt Q96GJ1) -0.063
TRAPPC2L (UniProt H3BQQ8) -0.068

Compound: C1=CC=C(C=C1)C2=NC(=C(N2)C3=CC=NC=C3)C4=CC(=C(C=C4)Cl)O
Assay: as above
Procedure, shortened: as §1

log2 fold change, inactive:
TRAF5 isoform 2 (UniProt O00463) 0.122
TRIM26 (UniProt Q12899) -0.114
TRIAP1 (UniProt O43715) -0.014
TRPM7 (UniProt Q96QT4) 0.073
TSPYL6 (UniProt Q8N831) 0.15
TRIQK (UniProt Q629K1) -0.043
TRMT10B (UniProt Q6PF06) 0.027
TSC22D3 isoform 3 (UniProt Q99576) 0.122
TSEN15, A0A2U3TZM3 -0.021
TSPAN3 (UniProt O60637) 0
TSC22D1 isoform 2 (UniProt Q15714) 0.073
TSKS (UniProt Q9UJT2) 0.028
TRDMT1 (UniProt O14717) -0.139
TTC3 (UniProt P53804) 0.093
TTC13 (UniProt Q8NBP0) -0.103
TSPYL1 (UniProt Q9H0U9) 0.093

— the supplement of paper PMC10849652
